This passage reports binding results from PMC12313710, “Targeting the BAG2/CHIP axis promotes gastric cancer apoptosis by blocking apoptosome assembly” (Frontiers in Immunology, 2025).

Holding throughout (details): remark: other sources report otherwise
Assay [1] addresses T1, c-terminus of HSP70-interacting protein (CHIP), Flag- or HA-tagged, Q9UNE7.
T1 chain: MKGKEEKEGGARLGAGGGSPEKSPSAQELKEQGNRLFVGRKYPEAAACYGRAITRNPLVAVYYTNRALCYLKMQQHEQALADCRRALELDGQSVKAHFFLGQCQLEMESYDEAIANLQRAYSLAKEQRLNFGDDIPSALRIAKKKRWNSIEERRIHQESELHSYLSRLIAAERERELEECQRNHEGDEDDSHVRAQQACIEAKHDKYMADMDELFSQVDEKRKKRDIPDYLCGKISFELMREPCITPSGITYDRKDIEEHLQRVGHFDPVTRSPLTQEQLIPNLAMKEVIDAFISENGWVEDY
Nature of the assay: co-IP; BAG2 and CHIP, wild type, deletion mutants and CHIP 91–96 / 131–135 mutants (Figure 5A, B, E); cell line not stated.

The target of assay [2] is T1, c-terminus of HSP70-interacting protein …. Nature of the assay: co-IP; Flag- and HA-tagged proteins co-expressed in HEK-293T; lysis in 50 mM Tris-HCl pH 7.4, 150 mM NaCl, 1 mM EDTA, 0.2% Triton X-100; anti-Flag M2 agarose, 2 h, 4°C; blots for HA and FLAG.
The target of assay [3] is T2, CHIP in HGC-27 cells, Q9UNE7.
T2 chain: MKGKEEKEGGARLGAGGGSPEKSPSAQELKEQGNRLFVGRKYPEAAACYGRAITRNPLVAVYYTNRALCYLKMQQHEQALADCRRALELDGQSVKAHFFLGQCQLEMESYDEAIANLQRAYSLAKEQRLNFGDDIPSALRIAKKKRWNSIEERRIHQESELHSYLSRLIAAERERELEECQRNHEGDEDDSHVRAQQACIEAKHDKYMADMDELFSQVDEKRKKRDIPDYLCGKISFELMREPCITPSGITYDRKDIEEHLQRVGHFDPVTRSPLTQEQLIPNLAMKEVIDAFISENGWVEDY
Kind of assay: co-IP; BAG2-CHIP in HGC-27 cells treated with FIIN-2 at the indicated concentrations.

Assay [4] addresses T3, CHIP (immunoprecipitation of Supplementary Figure 3), Q9UNE7.
T3 chain: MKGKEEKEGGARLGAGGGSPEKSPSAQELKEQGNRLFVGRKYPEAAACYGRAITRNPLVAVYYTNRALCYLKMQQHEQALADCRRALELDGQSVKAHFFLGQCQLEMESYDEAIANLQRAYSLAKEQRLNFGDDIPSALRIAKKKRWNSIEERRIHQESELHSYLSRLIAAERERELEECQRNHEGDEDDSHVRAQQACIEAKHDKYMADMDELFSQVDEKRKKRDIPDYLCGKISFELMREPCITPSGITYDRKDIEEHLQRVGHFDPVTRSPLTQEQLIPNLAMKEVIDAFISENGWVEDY
Kind of assay: co-IP; immunoprecipitation of Supplementary Figure 3; cells and constructs not told.

A further assay deals with T4, HA-tagged CHIP, Q9UNE7.
T4 chain: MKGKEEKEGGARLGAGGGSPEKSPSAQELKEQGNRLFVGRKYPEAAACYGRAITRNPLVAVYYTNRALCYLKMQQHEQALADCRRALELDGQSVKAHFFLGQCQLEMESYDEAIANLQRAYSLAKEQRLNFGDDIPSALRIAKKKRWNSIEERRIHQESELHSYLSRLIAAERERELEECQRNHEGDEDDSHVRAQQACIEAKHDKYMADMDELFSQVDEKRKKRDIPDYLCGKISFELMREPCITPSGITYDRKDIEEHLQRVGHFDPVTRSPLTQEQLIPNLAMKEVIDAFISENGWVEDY
Nature of the assay: co-IP; HA-tagged CHIP and FLAG-tagged HSP70 in HEK-293 cells transfected with No-tagged BAG2 (concentration-dependent).

No constants are given. Whether binding was seen depends on the method and setting. Binding seen in cells or lysates may run through a third protein. Some results given as binding are weak or reduced against the parent protein; the word gives no strength. For some assays here: Tags and fused reporters may be left off the sequences shown.

B1: BCL2-associated athanogene 2 (BAG2), Flag- or HA-tagged, O95816 1-211 (protein)
chain: MAQAKINAKANEGRFCRSSSMADRSSRLLESLDQLELRVEALREAATAVEQEKEILLEMIHSIQNSQDMRQISDGEREELNLTANRLMGRTLTVEVSVETIRNPQQQESLKHATRIIDEVVNKFLDDLGNAKSHLMSLYSACSSEVPHGPVDQKFQSIVIGCALEDQKKIKRRLETLLRNIENSDKAIKLLEHSKGAGSKTLQQNAESRFN
In the case of B1, the binding result in assay [1] and in assay [2] was “binds” throughout.

B2: BAG2 in HGC-27 cells, O95816 1-211 (protein)
chain: MAQAKINAKANEGRFCRSSSMADRSSRLLESLDQLELRVEALREAATAVEQEKEILLEMIHSIQNSQDMRQISDGEREELNLTANRLMGRTLTVEVSVETIRNPQQQESLKHATRIIDEVVNKFLDDLGNAKSHLMSLYSACSSEVPHGPVDQKFQSIVIGCALEDQKKIKRRLETLLRNIENSDKAIKLLEHSKGAGSKTLQQNAESRFN
For B2, the binding entry in assay [3] is reported as “binds”.

B3: BAG2 (immunoprecipitation of Supplementary Figure 3), O95816 1-211 (protein)
chain: MAQAKINAKANEGRFCRSSSMADRSSRLLESLDQLELRVEALREAATAVEQEKEILLEMIHSIQNSQDMRQISDGEREELNLTANRLMGRTLTVEVSVETIRNPQQQESLKHATRIIDEVVNKFLDDLGNAKSHLMSLYSACSSEVPHGPVDQKFQSIVIGCALEDQKKIKRRLETLLRNIENSDKAIKLLEHSKGAGSKTLQQNAESRFN
B3: the binding entry in assay [4] is on record as “binds”.

B4: No-tagged BAG2, O95816 1-211 (protein)
chain: MAQAKINAKANEGRFCRSSSMADRSSRLLESLDQLELRVEALREAATAVEQEKEILLEMIHSIQNSQDMRQISDGEREELNLTANRLMGRTLTVEVSVETIRNPQQQESLKHATRIIDEVVNKFLDDLGNAKSHLMSLYSACSSEVPHGPVDQKFQSIVIGCALEDQKKIKRRLETLLRNIENSDKAIKLLEHSKGAGSKTLQQNAESRFN
Regarding B4, in the assay with HA-tagged CHIP, Q9UNE7, the binding result is “binds”.
